Data: patent publication US6803232B1, “NPY-Y7 receptor gene” (The Garvan Institute of Medical Research, priority 1998, dated 2004)
At least one compound was matched to its structure with a doubt left.

Test system: human NPY-Y7 receptors
Test: Competitive displacement of [125I]PYY on membranes of COSm6 cells transiently expressing human NPY-Y7 receptors
Details: inhibition of [125I]PYY (50 pM) binding, single experiment, triplicate points
Protocol: The results were obtained through competitive displacement of [^125I]PYY on membranes of COSm6 cells transiently expressing human NPY-Y7 receptors. Membranes were incubated with [^125I]PYY (50 pM) and increasing concentrations of peptide competitors. Data are representative of a single experiment with each point measured in triplicate.
These experiments were conducted using COS-6 or HEX (293) cells transiently expressing recombinant Y7 receptor protein.
pcDNA3.1-hy7 cDNA was transiently transfected into the COSm6 cell line using FUGENE and […] of DNA/106 cells. The COSm6 cells were grown in Dulbecco's modified Eagles medium supplemented with 2 mM glutamine and 10% fetal calf serum, in 5% CO2 at 37° C. Membranes were harvested with COSm6 cells 72hr post-transfection. Adherent cells were washed twice in ice-cold phosphate buffered saline and lysed using a glass homogeniser in ice-cold hypotonic buffer (50 mM Tris-HCl, pH 7.4, 0.1% bacitracin). Membranes were pelleted by high speed centrifugation (30,000×g, 15 min 4° C.), homogeniser again in ice-cold hypotonic buffer and collected again by high speed centrifugation (30,000×g, 15 min, 4° C.). […] Samples were incubated at room temperature for 2hr. Incubations were terminated by centrifugation (4 min) and pellets collected. Radioactivity was measured for 1 min in a g counter.

## CC[C@H](C)[C@H](NC(=O)[C@H](Cc1ccc(O)cc1)NC(=O)[C@H](CCCNC(=N)N)NC(=O)[C@H](CCCNC(=N)N)NC(=O)[C@H](CC(C)C)NC(=O)[C@H](CC(=O)O)NC(=O)[C@H](C)NC(=O)[C@H](C)NC(=O)[C@H](Cc1ccc(O)cc1)NC(=O)[C@H](CCC(N)=O)NC(=O)[C@H](C)NC(=O)[C@H](CCSC)NC(=O)[C@H](CCC(N)=O)NC(=O)[C@H](CCC(=O)O)NC(=O)[C@@H]1CCCN1C(=O)[C@@H](NC(=O)[C@H](C)NC(=O)[C@H](CC(N)=O)NC(=O)[C@H](CC(=O)O)NC(=O)CNC(=O)[C@@H]1CCCN1C(=O)[C@H](Cc1ccc(O)cc1)NC(=O)[C@@H](NC(=O)[C@@H]1CCCN1C(=O)[C@H](CCC(=O)O)NC(=O)[C@H](CC(C)C)NC(=O)[C@@H]1CCCN1C(=O)[C@H](C)N)C(C)C)[C@@H](C)O)C(=O)N[C@@H](CC(N)=O)C(=O)N[C@@H](CCSC)C(=O)N[C@@H](CC(C)C)C(=O)N[C@H](C(=O)N[C@@H](CCCNC(=N)N)C(=O)N1CCC[C@H]1C(=O)N[C@@H](CCCNC(=N)N)C(=O)N[C@@H](Cc1ccc(O)cc1)C(N)=O)[C@@H](C)O [PP, pancreatic polypeptide]
  rank of potency for the Y7 receptor: PYY>NPY>[2-36]PYY>[3-36]NPY>[13-36]NPY>>(Leu31, Pro34)NPY>PP
